Test results from the supplement of paper PMC12595434, “Development of retinoid nuclear receptor pathway antagonists through targeting aldehyde dehydrogenase 1A3” (iScience, 2025).
This is one part of the list. The data scatter; read single values as rough.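 Tm was set to 64 °C where no melting was found, and many curves are irregular.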

By UniProt entry, the sequences of proteins in these tests, tags left out. Where a name states a change or a piece, a line headed by the entry shows the natural chain unless it says otherwise.
UniProt Q9UJX3, whole entry: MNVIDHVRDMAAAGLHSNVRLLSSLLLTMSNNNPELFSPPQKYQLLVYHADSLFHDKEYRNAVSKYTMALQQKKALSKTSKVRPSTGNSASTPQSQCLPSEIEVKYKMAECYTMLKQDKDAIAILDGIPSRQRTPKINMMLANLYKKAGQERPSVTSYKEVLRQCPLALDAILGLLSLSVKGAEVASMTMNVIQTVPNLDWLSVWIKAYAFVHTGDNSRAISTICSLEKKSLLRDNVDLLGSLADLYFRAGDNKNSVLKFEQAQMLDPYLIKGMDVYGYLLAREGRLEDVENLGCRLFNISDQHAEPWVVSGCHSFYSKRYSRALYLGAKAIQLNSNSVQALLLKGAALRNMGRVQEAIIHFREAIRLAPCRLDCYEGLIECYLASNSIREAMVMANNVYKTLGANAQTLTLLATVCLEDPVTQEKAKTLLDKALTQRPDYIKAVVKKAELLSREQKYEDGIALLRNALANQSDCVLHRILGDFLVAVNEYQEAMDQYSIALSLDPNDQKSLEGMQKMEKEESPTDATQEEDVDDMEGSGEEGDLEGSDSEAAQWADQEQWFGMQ
UniProt Q9Y244: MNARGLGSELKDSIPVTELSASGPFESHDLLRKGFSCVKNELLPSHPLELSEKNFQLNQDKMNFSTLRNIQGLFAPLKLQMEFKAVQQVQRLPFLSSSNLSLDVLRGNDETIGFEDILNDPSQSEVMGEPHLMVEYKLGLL
UniProt Q9UKA9: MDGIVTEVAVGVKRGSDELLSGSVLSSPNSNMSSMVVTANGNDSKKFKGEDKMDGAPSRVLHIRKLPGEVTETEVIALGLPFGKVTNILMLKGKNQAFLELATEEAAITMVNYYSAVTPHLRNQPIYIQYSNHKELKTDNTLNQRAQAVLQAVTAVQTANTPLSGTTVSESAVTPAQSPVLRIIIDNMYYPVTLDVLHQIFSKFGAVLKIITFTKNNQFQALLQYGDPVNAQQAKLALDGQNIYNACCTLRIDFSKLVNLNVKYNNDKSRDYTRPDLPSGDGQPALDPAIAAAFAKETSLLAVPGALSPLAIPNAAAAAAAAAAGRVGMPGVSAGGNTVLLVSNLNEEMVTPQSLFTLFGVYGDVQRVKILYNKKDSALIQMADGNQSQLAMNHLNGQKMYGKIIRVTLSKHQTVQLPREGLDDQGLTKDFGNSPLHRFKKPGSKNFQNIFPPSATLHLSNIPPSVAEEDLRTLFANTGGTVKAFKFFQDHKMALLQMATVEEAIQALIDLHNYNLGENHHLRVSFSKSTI
UniProt Q9UH99: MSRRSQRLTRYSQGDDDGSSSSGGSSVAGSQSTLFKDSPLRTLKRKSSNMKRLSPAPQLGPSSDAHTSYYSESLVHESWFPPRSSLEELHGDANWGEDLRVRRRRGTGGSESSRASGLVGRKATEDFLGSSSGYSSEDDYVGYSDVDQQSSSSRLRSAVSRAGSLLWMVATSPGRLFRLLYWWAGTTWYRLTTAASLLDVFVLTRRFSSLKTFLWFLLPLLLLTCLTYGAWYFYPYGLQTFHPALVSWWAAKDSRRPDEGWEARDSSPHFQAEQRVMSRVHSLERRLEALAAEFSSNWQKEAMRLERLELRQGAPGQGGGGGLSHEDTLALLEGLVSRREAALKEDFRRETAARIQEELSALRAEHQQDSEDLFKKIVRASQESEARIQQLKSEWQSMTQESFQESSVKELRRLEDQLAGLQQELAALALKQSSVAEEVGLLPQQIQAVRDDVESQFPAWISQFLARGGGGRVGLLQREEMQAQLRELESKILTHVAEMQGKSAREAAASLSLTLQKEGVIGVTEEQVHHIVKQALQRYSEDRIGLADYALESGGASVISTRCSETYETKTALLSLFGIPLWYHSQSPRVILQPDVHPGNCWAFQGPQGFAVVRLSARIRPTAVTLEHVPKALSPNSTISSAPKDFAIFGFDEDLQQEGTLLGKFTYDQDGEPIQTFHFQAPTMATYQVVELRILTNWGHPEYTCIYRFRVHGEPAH
UniProt Q9UMS0: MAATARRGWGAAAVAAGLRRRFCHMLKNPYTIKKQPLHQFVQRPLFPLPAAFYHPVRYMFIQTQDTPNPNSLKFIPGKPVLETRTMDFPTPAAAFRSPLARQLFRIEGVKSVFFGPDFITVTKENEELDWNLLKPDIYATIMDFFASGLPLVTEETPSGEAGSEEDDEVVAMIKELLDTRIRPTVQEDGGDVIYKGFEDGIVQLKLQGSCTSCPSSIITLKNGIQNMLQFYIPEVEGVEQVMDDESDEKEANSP
UniProt Q9UNS1: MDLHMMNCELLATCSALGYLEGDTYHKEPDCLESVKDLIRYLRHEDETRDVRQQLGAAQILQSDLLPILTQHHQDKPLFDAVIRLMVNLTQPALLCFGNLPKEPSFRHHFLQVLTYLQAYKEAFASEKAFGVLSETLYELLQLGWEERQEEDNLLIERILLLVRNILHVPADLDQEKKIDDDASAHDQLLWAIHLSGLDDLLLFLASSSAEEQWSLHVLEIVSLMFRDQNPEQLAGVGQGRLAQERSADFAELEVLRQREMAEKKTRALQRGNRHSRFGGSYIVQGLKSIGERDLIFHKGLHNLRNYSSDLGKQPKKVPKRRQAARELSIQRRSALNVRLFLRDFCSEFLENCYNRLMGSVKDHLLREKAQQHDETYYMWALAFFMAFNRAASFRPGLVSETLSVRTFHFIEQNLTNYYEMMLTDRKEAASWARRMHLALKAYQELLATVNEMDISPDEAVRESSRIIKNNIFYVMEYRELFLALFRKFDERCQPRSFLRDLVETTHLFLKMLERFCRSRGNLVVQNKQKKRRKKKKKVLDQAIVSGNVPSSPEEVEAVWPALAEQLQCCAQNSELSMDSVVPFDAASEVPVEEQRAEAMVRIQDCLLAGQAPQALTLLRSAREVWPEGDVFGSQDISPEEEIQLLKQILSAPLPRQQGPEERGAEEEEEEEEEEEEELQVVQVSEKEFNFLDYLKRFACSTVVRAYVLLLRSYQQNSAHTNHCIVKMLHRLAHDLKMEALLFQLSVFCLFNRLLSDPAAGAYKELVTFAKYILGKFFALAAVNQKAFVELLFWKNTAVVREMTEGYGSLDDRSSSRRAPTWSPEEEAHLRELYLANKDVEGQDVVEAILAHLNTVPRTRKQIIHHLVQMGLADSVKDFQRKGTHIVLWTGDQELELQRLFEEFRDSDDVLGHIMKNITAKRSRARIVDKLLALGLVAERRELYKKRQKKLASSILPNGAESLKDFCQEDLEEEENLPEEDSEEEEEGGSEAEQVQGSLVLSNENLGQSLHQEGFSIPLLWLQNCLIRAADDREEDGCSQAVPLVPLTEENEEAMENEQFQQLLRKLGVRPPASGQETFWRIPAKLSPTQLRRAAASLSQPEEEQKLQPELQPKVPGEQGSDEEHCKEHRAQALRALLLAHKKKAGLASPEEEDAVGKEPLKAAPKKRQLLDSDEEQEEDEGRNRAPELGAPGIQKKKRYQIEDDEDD
UniProt Q9ULR0: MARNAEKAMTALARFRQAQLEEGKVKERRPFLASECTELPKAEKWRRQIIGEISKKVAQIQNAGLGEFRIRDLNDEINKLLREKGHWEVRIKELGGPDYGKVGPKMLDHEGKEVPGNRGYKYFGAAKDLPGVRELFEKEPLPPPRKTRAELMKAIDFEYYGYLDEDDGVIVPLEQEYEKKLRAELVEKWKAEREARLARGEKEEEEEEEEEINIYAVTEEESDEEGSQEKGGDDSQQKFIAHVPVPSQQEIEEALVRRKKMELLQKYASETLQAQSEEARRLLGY
UniProt Q9UGC7: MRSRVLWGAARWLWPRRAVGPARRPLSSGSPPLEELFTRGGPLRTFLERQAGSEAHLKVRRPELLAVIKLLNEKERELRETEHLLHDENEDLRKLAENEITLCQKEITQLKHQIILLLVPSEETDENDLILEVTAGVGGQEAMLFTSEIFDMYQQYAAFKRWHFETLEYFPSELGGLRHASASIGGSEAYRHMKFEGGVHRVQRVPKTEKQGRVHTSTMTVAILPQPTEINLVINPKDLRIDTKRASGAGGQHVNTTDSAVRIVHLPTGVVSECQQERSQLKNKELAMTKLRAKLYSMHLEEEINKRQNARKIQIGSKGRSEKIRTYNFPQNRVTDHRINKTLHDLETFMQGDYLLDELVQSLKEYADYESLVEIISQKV
UniProt Q9Y2G8: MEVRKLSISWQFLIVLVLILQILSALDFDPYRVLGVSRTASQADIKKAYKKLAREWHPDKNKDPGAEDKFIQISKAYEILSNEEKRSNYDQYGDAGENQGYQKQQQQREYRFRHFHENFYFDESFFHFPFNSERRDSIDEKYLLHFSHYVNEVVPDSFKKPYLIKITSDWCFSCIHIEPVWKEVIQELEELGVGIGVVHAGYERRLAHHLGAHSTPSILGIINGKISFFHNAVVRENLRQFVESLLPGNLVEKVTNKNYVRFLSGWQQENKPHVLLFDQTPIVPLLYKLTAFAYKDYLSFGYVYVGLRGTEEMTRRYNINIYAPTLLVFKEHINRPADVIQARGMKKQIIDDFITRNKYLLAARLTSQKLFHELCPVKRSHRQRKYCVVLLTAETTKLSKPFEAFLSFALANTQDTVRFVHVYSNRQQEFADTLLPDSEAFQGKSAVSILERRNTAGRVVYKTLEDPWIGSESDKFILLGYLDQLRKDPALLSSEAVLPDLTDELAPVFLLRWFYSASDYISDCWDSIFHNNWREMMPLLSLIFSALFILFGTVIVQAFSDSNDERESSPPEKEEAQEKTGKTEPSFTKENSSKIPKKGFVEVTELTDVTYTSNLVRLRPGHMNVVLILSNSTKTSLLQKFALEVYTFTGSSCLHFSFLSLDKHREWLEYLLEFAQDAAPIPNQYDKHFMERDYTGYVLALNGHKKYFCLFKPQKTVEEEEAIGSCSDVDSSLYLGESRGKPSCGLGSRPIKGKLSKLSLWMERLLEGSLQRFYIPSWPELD
UniProt Q9UI15: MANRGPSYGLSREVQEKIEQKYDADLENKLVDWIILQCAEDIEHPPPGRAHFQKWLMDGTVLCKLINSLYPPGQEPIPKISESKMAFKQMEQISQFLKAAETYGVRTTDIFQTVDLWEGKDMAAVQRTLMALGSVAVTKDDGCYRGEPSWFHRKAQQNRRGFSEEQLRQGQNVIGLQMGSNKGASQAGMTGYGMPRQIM
UniProt Q9UPR0: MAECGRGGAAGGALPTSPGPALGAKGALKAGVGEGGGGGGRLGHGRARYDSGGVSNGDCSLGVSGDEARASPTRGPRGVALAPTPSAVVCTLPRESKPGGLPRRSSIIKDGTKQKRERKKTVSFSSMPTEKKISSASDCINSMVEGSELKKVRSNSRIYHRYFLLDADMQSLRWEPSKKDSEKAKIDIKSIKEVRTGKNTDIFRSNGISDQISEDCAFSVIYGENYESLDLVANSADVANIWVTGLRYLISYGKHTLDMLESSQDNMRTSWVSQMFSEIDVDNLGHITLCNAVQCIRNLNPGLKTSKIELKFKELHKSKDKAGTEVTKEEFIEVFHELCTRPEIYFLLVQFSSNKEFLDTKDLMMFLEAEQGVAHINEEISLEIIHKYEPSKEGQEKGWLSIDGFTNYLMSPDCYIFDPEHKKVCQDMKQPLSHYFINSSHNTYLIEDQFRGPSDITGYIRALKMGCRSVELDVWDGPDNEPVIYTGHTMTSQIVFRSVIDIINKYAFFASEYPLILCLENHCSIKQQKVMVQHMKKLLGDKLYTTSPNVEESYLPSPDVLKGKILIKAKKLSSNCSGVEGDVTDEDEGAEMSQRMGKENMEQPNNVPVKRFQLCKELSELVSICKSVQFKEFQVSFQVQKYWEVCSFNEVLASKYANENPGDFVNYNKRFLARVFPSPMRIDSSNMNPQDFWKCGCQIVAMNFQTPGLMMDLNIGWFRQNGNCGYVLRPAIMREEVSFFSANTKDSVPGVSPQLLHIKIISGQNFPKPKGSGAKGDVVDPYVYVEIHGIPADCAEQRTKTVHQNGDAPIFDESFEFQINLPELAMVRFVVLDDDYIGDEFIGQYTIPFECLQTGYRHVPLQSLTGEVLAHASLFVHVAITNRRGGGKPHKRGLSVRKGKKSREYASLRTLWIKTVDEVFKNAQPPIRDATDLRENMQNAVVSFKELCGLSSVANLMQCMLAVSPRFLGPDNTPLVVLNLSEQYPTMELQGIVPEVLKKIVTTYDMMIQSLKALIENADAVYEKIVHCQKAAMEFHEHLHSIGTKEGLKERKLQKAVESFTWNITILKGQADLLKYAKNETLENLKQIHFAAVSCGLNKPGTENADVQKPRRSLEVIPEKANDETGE
UniProt Q9UNH7: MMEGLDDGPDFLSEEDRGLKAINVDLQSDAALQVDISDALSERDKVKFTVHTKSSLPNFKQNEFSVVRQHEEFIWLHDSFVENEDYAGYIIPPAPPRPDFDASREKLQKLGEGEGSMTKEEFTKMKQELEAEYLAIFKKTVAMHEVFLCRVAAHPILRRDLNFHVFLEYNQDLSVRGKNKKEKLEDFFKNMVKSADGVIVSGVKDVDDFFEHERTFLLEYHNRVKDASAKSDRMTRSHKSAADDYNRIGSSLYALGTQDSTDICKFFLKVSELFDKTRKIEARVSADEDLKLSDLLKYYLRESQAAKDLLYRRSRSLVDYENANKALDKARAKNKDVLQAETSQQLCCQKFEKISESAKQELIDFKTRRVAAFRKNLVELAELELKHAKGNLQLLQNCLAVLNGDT

Compound: CCc1cnccc1C(=O)Nc1cc2c(cc1F)NC(=O)CC2
Experiment: melting temperature shift (DMSO Tm minus MBE1-treated Tm) in cellular thermal proteome profiling; higher = less thermal stabilization by MBE1 (negative = stabilized by MBE1)
Conditions: A375

Target | melting temperature shift (MBE1 concentration: 100 nM) | melting temperature shift (MBE1 concentration: 1 uM)
FAF1 (UniProt Q9UNN5) | -0.691 °C | 0.228 °C
UniProt Q9UKK6 | -0.448 °C | -0.48 °C
UniProt Q9UPN3 | 0.366 °C | -0.128 °C
RUVBL1 (UniProt Q9Y265) | -1.07 °C | -1.68 °C
GTF3C4 (UniProt Q9UKN8) | -1.29 °C | -0.57 °C
UniProt Q9UGT4 | -4.52 °C | -4.07 °C
ERGIC3 (UniProt Q9Y282) | -1.64 °C | 2.54 °C
C19ORF53 (UniProt Q9UNZ5) | -1.88 °C | -2.47 °C
PARP4 (UniProt Q9UKK3) | 1.33 °C | 0.421 °C
NRBP1 (UniProt Q9UHY1) | -0.281 °C | 0.189 °C
CORO1C (UniProt Q9ULV4) | -0.409 °C | -0.00671 °C
ANAPC7 (UniProt Q9UJX3) | 0.0183 °C | -0.00611 °C
UniProt Q9UM19 | -0.288 °C | -0.777 °C
UniProt Q9Y2E4 | 0.479 °C | 2.02 °C
TBK1 (UniProt Q9UHD2) | -0.979 °C | -0.4 °C
CDYL (UniProt Q9Y232) | -1.49 °C | -2.32 °C
TLK1 (UniProt Q9UKI8) | 1.67 °C | 4.77 °C
TES (UniProt Q9UGI8) | 0.409 °C | 11.4 °C
STOML2 (UniProt Q9UJZ1) | -0.914 °C | -1.89 °C
HECTD1 (UniProt Q9ULT8) | 0.611 °C | 0.0855 °C
UniProt Q9Y2I7 | 0.165 °C | 0.202 °C
FBXO3 (UniProt Q9UK99) | -0.778 °C | 0.782 °C
PPP6R1 (UniProt Q9UPN7) | -0.623 °C | 1.02 °C
COG5 (UniProt Q9UP83) | -0.852 °C | -1.91 °C

Target | melting temperature shift (MBE1 concentration: 100 nM) | melting temperature shift (MBE1 concentration: 1 uM)
ZNF148 (UniProt Q9UQR1) | -1.79 °C | 0.684 °C
TRMT112 (UniProt Q9UI30) | -1.41 °C | -0.421 °C
UniProt Q9ULU4 | -0.377 °C | -0.137 °C
CGGBP1 (UniProt Q9UFW8) | -0.986 °C | -0.832 °C
DLGAP4 (UniProt Q9Y2H0) | -1.04 °C | -0.269 °C
BAIAP2 (UniProt Q9UQB8) | 0.714 °C | 0.751 °C
UniProt Q9UJA3 | -5.23 °C | -3.04 °C
AMFR (UniProt Q9UKV5) | -1.62 °C | -0.959 °C
UniProt Q9Y244 | 0.334 °C | 0.979 °C
MCTS1 (UniProt Q9ULC4) | -0.617 °C | -1.53 °C
PTBP2 (UniProt Q9UKA9) | -0.244 °C | -0.147 °C
NCKAP1 (UniProt Q9Y2A7) | 0.464 °C | 0.812 °C
PIN4 (UniProt Q9Y237) | -0.912 °C | -0.657 °C
DDX41 (UniProt Q9UJV9) | -0.275 °C | -0.0384 °C
UniProt Q9UJT1 | 1.06 °C | 0.745 °C
PSME2 (UniProt Q9UL46) | -0.684 °C | 0.168 °C
ZC3H7B (UniProt Q9UGR2) | -0.0961 °C | 0.218 °C
WDR3 (UniProt Q9UNX4) | 0.91 °C | 0.336 °C
ABCF2 (UniProt Q9UG63) | -0.0366 °C | 0.311 °C
TNRC6B (UniProt Q9UPQ9) | 1.02 °C | 0.379 °C
UniProt Q9UHV7 | 1.39 °C | 0.214 °C
DDX20 (UniProt Q9UHI6) | -0.783 °C | -0.21 °C
AP4E1 (UniProt Q9UPM8) | 0.146 °C | 0.202 °C
CHMP2B (UniProt Q9UQN3) | -1.72 °C | 13.7 °C

Target | melting temperature shift (MBE1 concentration: 100 nM) | melting temperature shift (MBE1 concentration: 1 uM)
SUN2 (UniProt Q9UH99) | -0.732 °C | 0.702 °C
TPCN1 (UniProt Q9ULQ1) | -2.09 °C | -1.21 °C
MINPP1 (UniProt Q9UNW1) | -1.25 °C | 0.0122 °C
SEC63 (UniProt Q9UGP8) | -0.282 °C | 0.459 °C
NIP7 (UniProt Q9Y221) | -0.744 °C | 0.141 °C
HERC5 (UniProt Q9UII4) | -0.36 °C | -0.708 °C
C14ORF166 (UniProt Q9Y224) | 1.45 °C | 0.855 °C
NFU1 (UniProt Q9UMS0) | -1.02 °C | -0.629 °C
UniProt Q9ULD9 | -1.85 °C | 0.0427 °C
SOX13 (UniProt Q9UN79) | -0.107 °C | 4.56 °C
MAGED2 (UniProt Q9UNF1) | -1.03 °C | -0.429 °C
AKAP11 (UniProt Q9UKA4) | 1.28 °C | -0.0794 °C
AGAP1 (UniProt Q9UPQ3) | 0.806 °C | 0.672 °C
NARF (UniProt Q9UHQ1) | -0.472 °C | -2.09 °C
SRP68 (UniProt Q9UHB9) | 0.188 °C | 0.108 °C
TIMELESS (UniProt Q9UNS1) | -0.0384 °C | -0.282 °C
HOOK1 (UniProt Q9UJC3) | 0.458 °C | 0.0305 °C
TNIK (UniProt Q9UKE5) | -1.14 °C | 0.318 °C
EXOG (UniProt Q9Y2C4) | -1.32 °C | 0.542 °C
SCAF8 (UniProt Q9UPN6) | -0.474 °C | -0.295 °C
Q8IXS6 (UniProt Q9Y2D5) | -7.9 °C | -2.44 °C
BCS1L (UniProt Q9Y276) | -0.244 °C | 0.775 °C
UniProt Q9UQL6 | 0.214 °C | 0.202 °C
CCPG1 (UniProt Q9ULG6) | -0.812 °C | 0.107 °C

A different layout for part of the listing above.

| Target | melting temperature shift (MBE1 concentration: 100 nM) | melting temperature shift (MBE1 concentration: 1 uM) |
| --- | --- | --- |
| AP4E1 (UniProt Q9UPM8) | 0.146 °C | 0.202 °C |
| CHMP2B (UniProt Q9UQN3) | -1.72 °C | 13.7 °C |
| TPCN1 (UniProt Q9ULQ1) | -2.09 °C | -1.21 °C |
| MINPP1 (UniProt Q9UNW1) | -1.25 °C | 0.0122 °C |
| SEC63 (UniProt Q9UGP8) | -0.282 °C | 0.459 °C |
| HERC5 (UniProt Q9UII4) | -0.36 °C | -0.708 °C |
| C14ORF166 (UniProt Q9Y224) | 1.45 °C | 0.855 °C |
| NFU1 (UniProt Q9UMS0) | -1.02 °C | -0.629 °C |
| UniProt Q9ULD9 | -1.85 °C | 0.0427 °C |
| SOX13 (UniProt Q9UN79) | -0.107 °C | 4.56 °C |
| MAGED2 (UniProt Q9UNF1) | -1.03 °C | -0.429 °C |
| AKAP11 (UniProt Q9UKA4) | 1.28 °C | -0.0794 °C |
| AGAP1 (UniProt Q9UPQ3) | 0.806 °C | 0.672 °C |
| NARF (UniProt Q9UHQ1) | -0.472 °C | -2.09 °C |
| SRP68 (UniProt Q9UHB9) | 0.188 °C | 0.108 °C |
| TIMELESS (UniProt Q9UNS1) | -0.0384 °C | -0.282 °C |
| HOOK1 (UniProt Q9UJC3) | 0.458 °C | 0.0305 °C |
| TNIK (UniProt Q9UKE5) | -1.14 °C | 0.318 °C |
| SCAF8 (UniProt Q9UPN6) | -0.474 °C | -0.295 °C |
| Q8IXS6 (UniProt Q9Y2D5) | -7.9 °C | -2.44 °C |
| BCS1L (UniProt Q9Y276) | -0.244 °C | 0.775 °C |
| UniProt Q9UQL6 | 0.214 °C | 0.202 °C |
| CCPG1 (UniProt Q9ULG6) | -0.812 °C | 0.107 °C |

Next part.

Target | melting temperature shift (MBE1 concentration: 100 nM) | melting temperature shift (MBE1 concentration: 1 uM)
ANAPC2 (UniProt Q9UJX6) | 0.208 °C | -0.055 °C
AKT3 (UniProt Q9Y243) | -0.416 °C | -0.644 °C
ISY1 (UniProt Q9ULR0) | -0.384 °C | -0.468 °C
UniProt Q9ULJ6 | -0.448 °C | -0.501 °C
SMC3 (UniProt Q9UQE7) | 0.318 °C | 0.275 °C
UniProt Q9Y2D2 | -0.299 °C | -2.12 °C
TRAPPC2L (UniProt Q9UL33) | -0.0366 °C | -0.171 °C
UniProt Q9UK13 | 0.397 °C | 0.208 °C
MTRF1L (UniProt Q9UGC7) | -0.765 °C | 0.537 °C
NOCT (UniProt Q9UK39) | -0.454 °C | -0.0384 °C
CFL2 (UniProt Q9Y281) | -0.61 °C | 0.757 °C
DNAJC16 (UniProt Q9Y2G8) | 0.837 °C | 0.305 °C
BAZ1B (UniProt Q9UIG0) | -0.199 °C | -0.263 °C
UniProt Q9UIF9 | -0.266 °C | -0.66 °C
PFDN2 (UniProt Q9UHV9) | -3.39 °C | -2.71 °C
MGAT4B (UniProt Q9UQ53) | -1.03 °C | -0.55 °C
UniProt Q9ULJ8 | 0.977 °C | 0.177 °C
TSR3 (UniProt Q9UJK0) | -2.98 °C | -3.64 °C
MAN1B1 (UniProt Q9UKM7) | 1.37 °C | 0.739 °C
MED23 (UniProt Q9ULK4) | -0.496 °C | 0.666 °C
UniProt Q9UI15 | 2.23 °C | 0.934 °C
SNX12 (UniProt Q9UMY4) | 0.782 °C | 0.0488 °C
UniProt Q9Y2I1 | 1.47 °C | 0.94 °C
UniProt Q9UGH3 | -1.41 °C | -2.24 °C

Target | melting temperature shift (MBE1 concentration: 100 nM) | melting temperature shift (MBE1 concentration: 1 uM)
UniProt Q9Y2E5 | -1.09 °C | 0.788 °C
UniProt Q9UNH6 | -0.36 °C | 0.476 °C
AMACR (UniProt Q9UHK6) | -0.377 °C | 0.898 °C
UniProt Q9UPT6 | -0.147 °C | 0.0733 °C
MRPS33 (UniProt Q9Y291) | -0.0366 °C | 0.0916 °C
CNOT11 (UniProt Q9UKZ1) | 0.706 °C | -0.128 °C
FBXW11 (UniProt Q9UKB1) | 0.867 °C | 4.26 °C
USP25 (UniProt Q9UHP3) | 1.01 °C | 0.806 °C
UniProt Q9UG01 | -0.949 °C | -1.14 °C
UniProt Q9UNK9 | -3.71 °C | -4.98 °C
PLAA (UniProt Q9Y263) | -0.442 °C | -0.565 °C
COPS3 (UniProt Q9UNS2) | -1.64 °C | -0.449 °C
PACSIN3 (UniProt Q9UKS6) | 1.11 °C | 0.397 °C
PLCL2 (UniProt Q9UPR0) | 0.281 °C | -0.586 °C
UniProt Q9UH03 | -0.362 °C | -0.0201 °C
ZNF346 (UniProt Q9UL40) | -1.33 °C | -0.563 °C
TRIM33 (UniProt Q9UPN9) | -0.404 °C | -0.365 °C
PLXNA1 (UniProt Q9UIW2) | -0.791 °C | 0.341 °C
EIF2B4 (UniProt Q9UI10) | -0.318 °C | 0.104 °C
GPATCH8 (UniProt Q9UKJ3) | -1.79 °C | -0.852 °C
TTF2 (UniProt Q9UNY4) | -0.565 °C | -0.754 °C
SNX6 (UniProt Q9UNH7) | -0.11 °C | 0.721 °C
INPP5F (UniProt Q9Y2H2) | -1.11 °C | -0.605 °C
AGO2 (UniProt Q9UKV8) | 0.763 °C | 0.409 °C
